Assay results reported in paper PMC3136172.
For at least one entry, the source does not settle the construct or the ends of the probe. A weaker result is weaker than the reference pair of the same experiment.

Chains of the proteins cited; added tags and fusions are not shown. A line that says so, or that is headed by a name, gives the form on record, which may keep a tag or linker.
RPA (full-length replication protein A) (human), one chain, as listed by the source, chain 2 of 3: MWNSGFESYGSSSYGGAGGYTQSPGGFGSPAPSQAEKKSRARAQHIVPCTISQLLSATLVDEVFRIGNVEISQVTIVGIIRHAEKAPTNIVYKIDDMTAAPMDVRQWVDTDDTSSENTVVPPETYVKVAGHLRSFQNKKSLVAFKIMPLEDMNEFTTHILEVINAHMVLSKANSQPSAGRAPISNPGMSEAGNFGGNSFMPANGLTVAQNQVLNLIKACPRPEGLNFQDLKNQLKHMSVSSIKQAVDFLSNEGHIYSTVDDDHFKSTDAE
RPA (full-length replication protein A) (human), one chain, as listed by the source, chain 3 of 3: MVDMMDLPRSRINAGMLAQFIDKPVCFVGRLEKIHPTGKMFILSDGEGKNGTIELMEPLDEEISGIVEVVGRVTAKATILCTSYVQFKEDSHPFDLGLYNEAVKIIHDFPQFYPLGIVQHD
RPA (full-length replication protein A) (human), one chain, as listed by the source, chain 1 of 3: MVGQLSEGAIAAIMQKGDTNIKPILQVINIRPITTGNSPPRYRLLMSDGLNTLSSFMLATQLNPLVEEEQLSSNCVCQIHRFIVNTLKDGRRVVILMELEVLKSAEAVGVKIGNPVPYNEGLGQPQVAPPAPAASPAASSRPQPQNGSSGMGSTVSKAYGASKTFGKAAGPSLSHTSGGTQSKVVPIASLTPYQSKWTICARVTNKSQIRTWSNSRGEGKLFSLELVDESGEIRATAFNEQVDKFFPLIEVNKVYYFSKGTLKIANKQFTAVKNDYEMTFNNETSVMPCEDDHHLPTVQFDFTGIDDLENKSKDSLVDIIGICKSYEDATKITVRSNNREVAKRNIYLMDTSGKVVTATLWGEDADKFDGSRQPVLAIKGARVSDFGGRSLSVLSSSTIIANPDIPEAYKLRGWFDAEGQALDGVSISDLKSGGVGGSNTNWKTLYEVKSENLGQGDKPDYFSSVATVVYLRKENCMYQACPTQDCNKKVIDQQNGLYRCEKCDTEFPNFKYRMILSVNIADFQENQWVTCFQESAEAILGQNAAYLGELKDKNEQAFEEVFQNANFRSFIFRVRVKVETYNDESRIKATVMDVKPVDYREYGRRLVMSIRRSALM

What was measured:
[1] = tested on: RPA (full-length replication protein A) (human); test: CD titration (G4 unfolding); conditions: 25 mM Tris pH 7.5, 2 mM MgCl2, 0.5% inositol, 1 mM DTT, 100 mM NaCl or 100 mM KCl, 25 C, 1.4 uM DNA, protein:DNA ratio 0-5, recombinant protein, folded or branched DNA
[2] = tested on: RPA-CDE-core; test: CD titration (G4 unfolding); conditions: 25 mM Tris pH 7.5, 2 mM MgCl2, 0.5% inositol, 1 mM DTT, 100 mM NaCl or 100 mM KCl, 25 C, 1.4 uM DNA, protein:DNA ratio 0-5, recombinant protein, protein details: N-terminal His-tag, thrombin-cleaved, folded or branched DNA
[3] = 100 mM KCl, 2 mM Mg2+, incomplete unfolding at ratio 5
[4] = K+, TMPyP4, complete unfolding inhibited

Measured: binding result

TAGGGGAAGGGTTGGAGTGGGTT [Gq23]
binds more weakly: [1]; [3] | [1]; [4] | [2]; [3] | [2]; [4]
